Data: doi:10.1101/2024.03.11.584396
Results are given in words; binding and its absence hold for the method and conditions named.

By UniProt entry, the sequences of proteins in these tests, tags left out.
UniProt Q9BZV2, whole entry: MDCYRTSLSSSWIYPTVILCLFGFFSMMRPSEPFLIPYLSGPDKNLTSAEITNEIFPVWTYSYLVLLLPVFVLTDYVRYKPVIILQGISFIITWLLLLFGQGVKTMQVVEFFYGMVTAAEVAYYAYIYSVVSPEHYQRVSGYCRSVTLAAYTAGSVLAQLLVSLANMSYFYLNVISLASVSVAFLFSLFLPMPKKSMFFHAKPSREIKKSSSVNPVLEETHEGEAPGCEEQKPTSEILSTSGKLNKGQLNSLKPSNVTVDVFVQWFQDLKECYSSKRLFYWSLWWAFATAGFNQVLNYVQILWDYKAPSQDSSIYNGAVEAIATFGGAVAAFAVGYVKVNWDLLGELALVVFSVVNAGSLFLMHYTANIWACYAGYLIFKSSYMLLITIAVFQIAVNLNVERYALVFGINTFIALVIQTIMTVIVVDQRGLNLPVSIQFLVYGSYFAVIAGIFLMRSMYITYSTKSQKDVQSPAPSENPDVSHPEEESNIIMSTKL

Target: human thiamine transporter SLC19A3, wildtype (human) (UniProt Q9BZV2)
Test: SEC

## human thiamine transporter SLC19A3, wildtype (from UniProt Q9BZV2 1-496)
  binding: no binding
